This is an account of results in PMC12494878.

Sequences of proteins named here, by UniProt entry; tags and fusion partners are left off. A change or cut given only in a name is not applied to a line headed by its entry.
UniProt P31057: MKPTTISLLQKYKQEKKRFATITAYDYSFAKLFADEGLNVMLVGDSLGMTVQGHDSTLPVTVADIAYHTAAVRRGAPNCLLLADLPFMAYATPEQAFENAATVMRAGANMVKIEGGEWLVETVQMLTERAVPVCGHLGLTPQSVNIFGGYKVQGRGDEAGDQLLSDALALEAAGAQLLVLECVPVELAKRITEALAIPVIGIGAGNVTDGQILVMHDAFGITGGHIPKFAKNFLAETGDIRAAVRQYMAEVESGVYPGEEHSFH

This assay addresses 1M3U agglomerating mutant fused to YFP, as used for the pull-down (UniProt P31057). Description: affinity purification with mass spectrometry; pull-down of the YFP tag from yeast lysate with magnetic agarose beads (RFP-Trap Magnetic Agarose kit, ChromoTek), in-bead trypsin digestion, LC-MS/MS; enriched fraction of the agglomerating mutant compared with that of the wild type; three biological replicates.

These are yes or no findings as the source states them, for the method shown. In cells and extracts the contact can be indirect. Here binding means that the protein was enriched with, or labelled near, the bait; the list need not be complete.

B1: ASP1, a cytosolic L-asparaginase (enzyme, UniProt P38986 1-381)
chain: MKSDSVEITTICPDVENSQFVVQSNCPETIPEILKSQNAAVNGSGIACQQRSLPRIKILGTGGTIASKAIDSSQTAGYHVDLTIQDLLDAIPDISKVCDIEYEQLCNVDSKDINEDILYKIYKGVSESLQAFDGIVITHGTDTLSETAFFIESTIDAGDVPIVFVGSMRPSTSVSADGPMNLYQAICIASNPKSRGRGVLVSLNDQISSGYYITKTNANSLDSFNVRQGYLGNFVNNEIHYYYPPVKPQGCHKFKLRVDGKHFKLPEVCILYAHQAFPPAIVNLVADKYDGIVLATMGAGSLPEEVNETCMKLSLPIVYSKRSMDGMVPIANVPKKGSKEDNLIASGYLSPEKSRILLQLCLAGNYTLEEIKHVFTGVYGG
Take B1: the binding result is recorded as “binds”.
